Results of single-concentration screens

Results are given as percent effect. The record does not define 0% and 100%; most values in the screen are far below 50% and negative numbers occur (in some assays of this library far below -100). The compounds are a random part of those screened. Two or more numbers in one place are separate tests of the same structure; such repeats can differ widely.

Mtb glucose medium: 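Whole-cell growth test on Mycobacterium tuberculosis, read after 3 days in glucose-containing 7H9 medium; the read-out is not stated. Concentration: 50 µM. The record gives no direction; compounds that gave an IC50 in retests scored well above the rest, so higher reads as more growth inhibition. About 69,000 compounds were tested under these conditions; 1.1% (about 760) showed 50% or more at least once.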
Mtb cholesterol medium: 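Growth of Mycobacterium tuberculosis over 4 days (cholesterol / DPPC medium with tyloxapol); the read-out is not stated. Compounds at 50 µM. Direction is inferred from retests: higher values go with more growth inhibition. Size under these conditions: about 69,000 compounds, about 370 of them at 50% or above in at least one test.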

| compound | Mtb glucose medium | Mtb cholesterol medium |
|---|---|---|
| `CCOc1ccccc1CC(=O)N1CCCC(c2ncc[nH]2)C1` (stereo not shown) | 15.85 | 8.838 |
| `CN(CCO)Cc1nnc(C2CCN(C(=O)c3ccccn3)CC2)n1C` | -17.85 | -0.8898 and 3.606 |
| `[H][C@]12CC[C@]([H])(CN(C(=O)C3CCC3)C1)N(S(=O)(=O)c1ccccc1)C2` | -15.99 | 7.26 |
| `O=C(COCc1ccccc1Cl)Nc1ccnn1CC1CCOC1` (stereo not shown) | -6.857 | 3.663 |
| `O=C(O)C(F)(F)F.O=C(O)C(F)(F)F.O=C(O)C(F)(F)F.[H][C@@]12CC(=O)N(Cc3ccncc3)[C@@]1([H])CCN2Cc1ccccn1` | 6.459 | 4.396 |
| `CNc1nc(C(=O)N2CCC3(CCCN(CCOC)C3=O)C2)cs1` (stereo not shown) | 25.14 | 23.04 |
| `Cc1nn(C)c(C)c1NC(=O)CCn1ncc2ccc(Cl)cc21` | 12.63 | 0.3046 |
| `NC(=O)C1Cc2ccccc2CN1CCC(=O)N1CCc2ccccc21` (stereo not shown) | 18.9 and 5.275 | -28.58 |
| `COCCNC(=O)C1(Cc2ccccc2-c2ccncc2)CCOCC1` | 4.096 | -0.4414 |
| `COc1cccc(S(=O)(=O)Cc2noc(CC(C)C)n2)c1` | 44.62 | 46.75 |
| `O=S(=O)(Cc1ccc(Br)cc1)NCCO` | -3.975 and 69.73 | -17.86 |
| `Cc1ncccc1CNCC1CCN(CC(O)c2ccccc2)CC1` (stereo not shown) | -4.39 | -6.481 |
| `Cc1ccc(C2CSCCN2C(=O)C2=CCCC2)o1` (stereo not shown) | 3.26 | 9.28 |
| `Cc1nn(C)c(Cl)c1C(=O)NCC(c1ccsc1)N(C)C` (stereo not shown) | 1.255 | -0.2626 |
| `COC(=O)[C@@H]1Cc2ncn(C)c2CN1S(=O)(=O)Cc1ccccc1` | -7.244 and -1.056 | -6.668 |
| `Cc1cc(CNC(=O)NCC(O)c2cccc(F)c2)no1` (stereo not shown) | -3.209 and -13.37 | -10.44 |
| `CN(C)C(C(=O)N1CCN(C(=O)c2ccc[nH]2)CC1)c1ccc(F)cc1` (stereo not shown) | -22.22 | -27.07 |
| `CCC(C)N(Cc1cccnc1)Cc1ccccc1Cn1cccn1` (stereo not shown) | -5.401 | 12.93 |
| `CCCc1noc(CCC(=O)N2CCCCC2Cn2cc(C)cn2)n1` (stereo not shown) | 25.81 | -10.26 |
| `CS(=O)(=O)N[C@@H]1CCN(Cc2cccs2)[C@H]1Cc1cccnc1` | 0.5838 | 1.732 |
| `CC(C)c1noc(CCC(=O)N2CCCC(n3ccnc3)C2)n1` (stereo not shown) | -4.15 | 11.75 |
| `CC(C)c1cc(NC(=O)CN2CCCC(Cn3cncn3)C2)on1` (stereo not shown) | 16.47 | -15.89 |
| `CC(C)c1cc(NC(=O)CN2CCCC2c2noc(C(C)C)n2)on1` (stereo not shown) | -18.58 | 1.06 |
| `O=C1N(CCCc2ccccc2)CCCC1(O)CNCC1CCCCC1` (stereo not shown) | 12.3 and -12.52 | 28.52 |
| `CC(C)C1SCC(=O)Nc2c1c(O)nn2C1CCCC1` (stereo not shown) | 0.8907 | -6.453 |
| `COc1ccccc1OCc1cc(C(=O)N2CCN[C@H](C)C2)n[nH]1` | 0.276 | 6.626 |
| `Cc1nc(CNC(=O)c2cc(Cn3ccnc3C(C)C)[nH]n2)sc1C` | 10.33 | 1.239 |
| `O=C(C1CCC1)N1CCCC(c2ccnc(Nc3cnccn3)n2)C1` (stereo not shown) | 16.02 | -8.414 |
| `COc1ncc(NCc2csc(-c3ccco3)n2)cc1C(N)=O` | 24.46 | 21.79 |
| `Cc1cc(C(=O)N(C)C(C)CC(C)C)on1` (stereo not shown) | 25.48 | 23.62 |
| `COc1ccc(CN(C)c2ncc(S(N)(=O)=O)s2)c(OC)c1` | -0.5485 | -21.65 |
| `CS(=O)(=O)NCCN1CCCC1c1noc(C2CC2)n1` (stereo not shown) | -27.55 | 1.17 |
| `O=C(c1cccc2cccnc12)N1CCCC(n2ccnc2)C1` (stereo not shown) | 4.68 | 4.157 |
| `Cc1cc(C)c2c(OCC(=O)NC(C)C)nn(C)c2n1` | -1.236 | -10.91 |
| `Cc1nn(C)c(C)c1CC(=O)NCC1(C(N)=O)CCOCC1` | 8.954 | -78.24 |
| `CC(NC(=O)Cn1ccnc1)c1ccc(OCC2CC2)c(F)c1` (stereo not shown) | 15.39 | 3.035 |
| `CN(C)C(=O)c1ccc(C2CCCN2C(=O)c2ccccc2N(C)C)s1` (stereo not shown) | 4.806 | -7.289 |
| `O=C(CCc1ccco1)Nc1ncn(CC(=O)N2CCCCCC2)n1` | -1.057 and -22.09 | 6.781 |
| `COCC(=O)N1Cc2ccnn2CC(COCCN(C)C)C1.O=C(O)C(F)(F)F.O=C(O)C(F)(F)F` (stereo not shown) | -8.234 and 24.72 | -15.6 |
| `CC(=O)N1CCCN(C(=O)NCc2cccnc2OC(C)C)CC1` | -4.251 and -61.78 | -12.87 |
| `CN(CCO)Cc1nnc(C2CCN(CC(C)(C)C)CC2)n1C` | -26.59 | 4.587 and 11.41 |
| `CCN1CCN(C(C)CNC(=O)Nc2nnc(C)s2)CC1` (stereo not shown) | -14.12 | -17.82 |
| `Cc1ccc(C(O)CNCCn2cccn2)cc1C` (stereo not shown) | -18.75 | -5.141 |
| `CC(C)N(C)Cc1cncc2c1CCN(C1CCOCC1)C2.Cl.Cl.Cl` | 24.98 | 16.4 |
| `O=C(CN1CCc2c(ncn2C2CC2)C1)NC1CC1` | -16.77 | -17.03 |
| `C[C@@H]1CN(c2nc3c(cc2C(N)=O)CCC3)CC[C@@]1(O)C1CCC1` | 55.04 and 15.83 | 23.98 |
| `CS(=O)(=O)c1cccc2c1CCCN2C(=O)Cc1cccc(F)c1` | 17.26 | 11.16 |
| `Nc1ncc(CN2C[C@H](C3CC3)[C@@H](N)C2)cn1` | 16.59 | 4.719 |
| `O=C1CCSCC(C(=O)N2CCCC2)N1` (stereo not shown) | -18.86 and -10.1 | -6.655 |
| `Cc1nc(-c2ccccc2)ccc1C(=O)N1CCn2c(C)nnc2C1` | 14.12 | 13.91 |
| `COCC1c2c(cnn2C)CCN1Cc1ccc(C)cc1.O=C(O)C(F)(F)F.O=C(O)C(F)(F)F` (stereo not shown) | 15.98 | -7.732 |
| `CC(=O)c1nn(-c2ccccc2)c(C)c1C(C)=O` | 17.83 and 12.07 | 6.235 |
| `CS(=O)(=O)Cc1nc(CNc2c(F)cc(F)cc2F)cs1` | -8.806 | 10.97 |
| `Fc1cccc(N2CCc3ncnc(C4CC4)c3CC2)c1` | 20.43 and 10.48 | 14.08 |
| `O=C(CNC(=O)c1ccoc1)NC(c1ccc(F)cc1)C(F)(F)F` (stereo not shown) | -9.265 and 4.055 | 2.327 |
| `COCC(=O)NC(C)Cc1ccc(Br)cc1` (stereo not shown) | 39.91 | 19.39 |
| `CN(C)c1ncc(NS(=O)(=O)c2ccc(OC(F)(F)F)cc2)cn1` | 11.66 | 23.42 |
| `COCCn1ccc2ccc(C(=O)N3CCN(C(C)=O)CC3)cc21` | -1.623 | 20.25 |
| `CCc1nc(CC(=O)N2CCC(C(=O)N3CCCC3)CC2)cs1` | -29.02 | -26.31 |
| `Cc1cc(C)cc(C(=O)Nc2ccc(CC3CC(=O)NC3=O)cc2)c1` (stereo not shown) | -1.32 | 3.17 and 12.43 |
| `O=C(O)c1c(Cl)ncn1-c1ccccc1` | 3.989 | -12.82 |
| `CCCn1cc(C(=O)N2CCCC2(C)c2nc(C)cc(N)n2)cn1` (stereo not shown) | -0.02314 | 3.362 |
| `COc1cccc2c1OCC(CNC(=O)CSc1ccccn1)C2` (stereo not shown) | -0.4507 and 16.71 | 1 and -1.855 |
| `CCS(=O)(=O)Nc1ccc2c(c1)OCC(C)(C)C(=O)N2C` | -38.76 | -34.2 |
| `Cc1cc2cccc(NC(=O)N3CCC(N(C)C)C3)c2o1` (stereo not shown) | 18.35 and 2.28 | 12.24 |
| `CC(NCc1cnc(C2CCC2)s1)c1cccc(-n2ccnc2)c1` (stereo not shown) | 13.4 | 20.52 |
| `Cc1ccc(C(=O)N(C)Cc2csc(Br)c2)c(=O)[nH]1` | 0.2997 | -4.244 |
| `O=C(c1coc(COc2ccccc2F)n1)N1CCC[C@H]1CO` | 5.485 | 14.31 |
| `Fc1cccc(CN2CCC3(CCCN3c3ncccn3)CC2)c1.O=C(O)C(F)(F)F` | -4.176 | -5.25 |
| `Cc1nccn1-c1cc(CNC(=O)C(C)(C)C)ccn1` | 2.896 and 0.9834 | -11.33 |
| `Cc1cnc(N2CCC3(CCCCN3C)C2)nc1.O=C(O)C(F)(F)F` (stereo not shown) | 6.661 | 31.56 |
| `CC(C)c1cc(C(=O)N2CCN(Cc3ccc(C#N)cc3)CC2)n[nH]1` | 22.34 and 5.652 | 2.212 |
| `O=C1CCC2(CCCN(C(=O)c3cccnc3)CC2)N1` (stereo not shown) | 22.26 | 0.9263 |
| `CSCCNC(=O)c1coc(COc2ccc(F)cc2)n1` | -16.98 | -23.97 |
| `Clc1cccc(-c2noc(CCN3CCN(c4ccncc4)CC3)n2)c1` | 29.59 and 25.33 | 38.29 |
| `CCOCCN1CCN(Cc2cccc(C(=O)N(C)C)c2)CC1C` (stereo not shown) | -20.28 | 3.61 |
| `[H][C@]12CC[C@]([H])(CN(S(=O)(=O)N(C)C)C1)N(C(=O)c1cccc(C)n1)C2` | -7.869 | 9.06 |
| `Cc1ccccc1C1(C(=O)NCCN(C)C)CCOCC1` | -31.75 | -14.06 |
| `COC(=O)c1ccc(N2CCN(C(=O)c3cnn(C)c3)C(C)C2)cc1` (stereo not shown) | 17.34 | 14.7 |
| `CC(O)CN1CCN(Cc2cccc(C#N)c2)CC1` (stereo not shown) | 25.7 | 9.268 |
| `COc1ccc(S(=O)(=O)NCCCc2ccc(N(C)C)cc2)cc1F` | 29.32 and 16.24 | -3.668 |
| `COc1ccnc(N2CCN(C(=O)c3cnc(C4CC4)s3)CC2)n1` | 27.44 and 16.57 | -0.293 |
| `CC(C)c1sc(Br)nc1C(=O)NCc1ccco1` | -12.79 and 14.83 | -8.519 |

The last 10 entries again:

{"compound": "CSCCNC(=O)c1coc(COc2ccc(F)cc2)n1", "Mtb glucose medium": -16.98, "Mtb cholesterol medium": -23.97}
{"compound": "Clc1cccc(-c2noc(CCN3CCN(c4ccncc4)CC3)n2)c1", "Mtb glucose medium": "29.59 and 25.33", "Mtb cholesterol medium": 38.29}
{"compound": "CCOCCN1CCN(Cc2cccc(C(=O)N(C)C)c2)CC1C", "stereo": "stereo not shown", "Mtb glucose medium": -20.28, "Mtb cholesterol medium": 3.61}
{"compound": "[H][C@]12CC[C@]([H])(CN(S(=O)(=O)N(C)C)C1)N(C(=O)c1cccc(C)n1)C2", "Mtb glucose medium": -7.869, "Mtb cholesterol medium": 9.06}
{"compound": "Cc1ccccc1C1(C(=O)NCCN(C)C)CCOCC1", "Mtb glucose medium": -31.75, "Mtb cholesterol medium": -14.06}
{"compound": "COC(=O)c1ccc(N2CCN(C(=O)c3cnn(C)c3)C(C)C2)cc1", "stereo": "stereo not shown", "Mtb glucose medium": 17.34, "Mtb cholesterol medium": 14.7}
{"compound": "CC(O)CN1CCN(Cc2cccc(C#N)c2)CC1", "stereo": "stereo not shown", "Mtb glucose medium": 25.7, "Mtb cholesterol medium": 9.268}
{"compound": "COc1ccc(S(=O)(=O)NCCCc2ccc(N(C)C)cc2)cc1F", "Mtb glucose medium": "29.32 and 16.24", "Mtb cholesterol medium": -3.668}
{"compound": "COc1ccnc(N2CCN(C(=O)c3cnc(C4CC4)s3)CC2)n1", "Mtb glucose medium": "27.44 and 16.57", "Mtb cholesterol medium": -0.293}
{"compound": "CC(C)c1sc(Br)nc1C(=O)NCc1ccco1", "Mtb glucose medium": "-12.79 and 14.83", "Mtb cholesterol medium": -8.519}

From ChEMBL document CHEMBL3988442, “University of Dundee, Small-Polar-MMV Screening Library” (2021).